# The supplement of paper PMC12819154, “High-throughput peptide-centric local stability assay extends protein–ligand identification to membrane proteins, tissues and bacteria” (Nature Structural & Molecular Biology, 2025)
# Amino acid sequences for entries named in this document (tags omitted). A change or cut given only in a name is not applied to a line headed by its entry.
# UniProt Q96EP0: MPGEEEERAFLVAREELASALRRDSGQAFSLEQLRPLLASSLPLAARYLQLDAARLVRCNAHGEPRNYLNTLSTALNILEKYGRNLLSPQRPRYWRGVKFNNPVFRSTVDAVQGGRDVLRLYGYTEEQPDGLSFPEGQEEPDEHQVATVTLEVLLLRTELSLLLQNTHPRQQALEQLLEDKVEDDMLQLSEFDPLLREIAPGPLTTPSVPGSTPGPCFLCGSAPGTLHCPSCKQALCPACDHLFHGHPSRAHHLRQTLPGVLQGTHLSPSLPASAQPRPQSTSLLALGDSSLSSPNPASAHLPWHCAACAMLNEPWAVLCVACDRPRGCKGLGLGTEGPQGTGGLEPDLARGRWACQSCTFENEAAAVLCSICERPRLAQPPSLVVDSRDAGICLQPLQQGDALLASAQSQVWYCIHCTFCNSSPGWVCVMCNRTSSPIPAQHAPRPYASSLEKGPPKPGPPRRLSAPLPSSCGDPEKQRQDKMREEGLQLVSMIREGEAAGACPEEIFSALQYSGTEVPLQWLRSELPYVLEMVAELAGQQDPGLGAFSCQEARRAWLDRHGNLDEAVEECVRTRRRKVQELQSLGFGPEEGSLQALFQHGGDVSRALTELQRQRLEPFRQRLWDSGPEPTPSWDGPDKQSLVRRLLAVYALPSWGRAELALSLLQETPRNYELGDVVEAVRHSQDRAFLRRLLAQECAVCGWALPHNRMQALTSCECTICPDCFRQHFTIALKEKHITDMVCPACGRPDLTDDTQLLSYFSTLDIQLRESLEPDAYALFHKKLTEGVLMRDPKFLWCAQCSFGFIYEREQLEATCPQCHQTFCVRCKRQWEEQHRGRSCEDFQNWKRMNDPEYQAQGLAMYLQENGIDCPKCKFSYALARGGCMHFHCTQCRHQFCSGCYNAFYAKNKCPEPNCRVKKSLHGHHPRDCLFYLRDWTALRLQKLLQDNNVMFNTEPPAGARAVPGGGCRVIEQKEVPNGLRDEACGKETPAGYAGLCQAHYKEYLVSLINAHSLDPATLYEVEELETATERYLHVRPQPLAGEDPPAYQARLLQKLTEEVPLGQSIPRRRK
# UniProt Q92733: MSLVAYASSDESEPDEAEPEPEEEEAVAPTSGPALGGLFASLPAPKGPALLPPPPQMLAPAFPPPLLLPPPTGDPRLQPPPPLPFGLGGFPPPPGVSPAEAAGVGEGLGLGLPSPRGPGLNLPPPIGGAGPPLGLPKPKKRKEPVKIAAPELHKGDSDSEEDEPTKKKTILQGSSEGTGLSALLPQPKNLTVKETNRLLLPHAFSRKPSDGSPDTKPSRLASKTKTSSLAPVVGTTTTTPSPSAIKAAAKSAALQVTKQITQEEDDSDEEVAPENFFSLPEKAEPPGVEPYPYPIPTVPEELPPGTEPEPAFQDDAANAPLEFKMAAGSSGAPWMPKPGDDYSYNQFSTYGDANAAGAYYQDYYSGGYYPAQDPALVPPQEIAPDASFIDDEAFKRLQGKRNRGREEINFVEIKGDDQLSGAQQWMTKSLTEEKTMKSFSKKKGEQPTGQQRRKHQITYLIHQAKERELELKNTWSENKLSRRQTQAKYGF
# UniProt Q96DE0: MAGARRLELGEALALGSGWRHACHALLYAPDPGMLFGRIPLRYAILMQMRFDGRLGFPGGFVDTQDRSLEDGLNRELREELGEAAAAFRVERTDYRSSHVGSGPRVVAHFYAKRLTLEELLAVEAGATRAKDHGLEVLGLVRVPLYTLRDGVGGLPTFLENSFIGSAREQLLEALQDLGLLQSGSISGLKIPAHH
# UniProt Q92796: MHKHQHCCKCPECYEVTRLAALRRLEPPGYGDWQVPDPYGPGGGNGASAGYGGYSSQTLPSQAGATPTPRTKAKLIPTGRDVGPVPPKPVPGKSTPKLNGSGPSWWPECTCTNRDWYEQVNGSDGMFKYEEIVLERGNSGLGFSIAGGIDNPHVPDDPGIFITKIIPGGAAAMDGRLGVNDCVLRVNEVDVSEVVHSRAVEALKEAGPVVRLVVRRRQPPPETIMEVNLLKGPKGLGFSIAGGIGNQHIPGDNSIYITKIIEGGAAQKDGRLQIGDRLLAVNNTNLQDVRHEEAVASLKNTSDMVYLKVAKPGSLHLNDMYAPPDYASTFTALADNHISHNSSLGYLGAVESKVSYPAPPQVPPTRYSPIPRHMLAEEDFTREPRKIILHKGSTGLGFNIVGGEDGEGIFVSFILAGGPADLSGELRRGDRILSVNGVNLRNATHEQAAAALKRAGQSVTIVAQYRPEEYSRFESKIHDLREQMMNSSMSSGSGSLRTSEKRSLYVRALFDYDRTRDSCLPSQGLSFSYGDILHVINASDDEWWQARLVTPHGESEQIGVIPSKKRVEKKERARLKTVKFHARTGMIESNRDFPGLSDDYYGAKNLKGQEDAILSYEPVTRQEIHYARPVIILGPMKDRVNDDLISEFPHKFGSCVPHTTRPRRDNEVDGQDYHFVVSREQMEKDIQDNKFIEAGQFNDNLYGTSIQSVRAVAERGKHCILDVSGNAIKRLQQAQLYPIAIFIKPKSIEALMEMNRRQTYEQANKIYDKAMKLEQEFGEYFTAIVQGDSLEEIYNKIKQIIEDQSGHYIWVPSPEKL
# UniProt Q96ED9: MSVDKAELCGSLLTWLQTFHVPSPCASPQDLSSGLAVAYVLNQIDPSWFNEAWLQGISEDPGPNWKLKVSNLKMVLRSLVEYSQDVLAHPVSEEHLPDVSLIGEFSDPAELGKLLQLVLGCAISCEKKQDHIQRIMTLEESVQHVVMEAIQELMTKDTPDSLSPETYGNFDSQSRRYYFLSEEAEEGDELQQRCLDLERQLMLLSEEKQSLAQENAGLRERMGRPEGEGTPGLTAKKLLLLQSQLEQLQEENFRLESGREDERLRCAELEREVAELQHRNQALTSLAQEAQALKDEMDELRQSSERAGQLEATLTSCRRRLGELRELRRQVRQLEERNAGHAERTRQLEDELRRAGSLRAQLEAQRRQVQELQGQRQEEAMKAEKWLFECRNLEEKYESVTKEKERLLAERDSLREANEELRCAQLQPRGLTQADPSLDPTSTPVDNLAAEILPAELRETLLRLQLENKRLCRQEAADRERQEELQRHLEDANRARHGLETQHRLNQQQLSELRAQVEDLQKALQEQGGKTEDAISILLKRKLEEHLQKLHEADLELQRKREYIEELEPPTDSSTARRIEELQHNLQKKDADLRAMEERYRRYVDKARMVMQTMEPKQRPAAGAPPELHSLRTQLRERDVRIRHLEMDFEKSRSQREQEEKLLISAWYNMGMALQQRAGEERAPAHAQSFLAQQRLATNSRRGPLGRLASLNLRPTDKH
# UniProt Q96BY7: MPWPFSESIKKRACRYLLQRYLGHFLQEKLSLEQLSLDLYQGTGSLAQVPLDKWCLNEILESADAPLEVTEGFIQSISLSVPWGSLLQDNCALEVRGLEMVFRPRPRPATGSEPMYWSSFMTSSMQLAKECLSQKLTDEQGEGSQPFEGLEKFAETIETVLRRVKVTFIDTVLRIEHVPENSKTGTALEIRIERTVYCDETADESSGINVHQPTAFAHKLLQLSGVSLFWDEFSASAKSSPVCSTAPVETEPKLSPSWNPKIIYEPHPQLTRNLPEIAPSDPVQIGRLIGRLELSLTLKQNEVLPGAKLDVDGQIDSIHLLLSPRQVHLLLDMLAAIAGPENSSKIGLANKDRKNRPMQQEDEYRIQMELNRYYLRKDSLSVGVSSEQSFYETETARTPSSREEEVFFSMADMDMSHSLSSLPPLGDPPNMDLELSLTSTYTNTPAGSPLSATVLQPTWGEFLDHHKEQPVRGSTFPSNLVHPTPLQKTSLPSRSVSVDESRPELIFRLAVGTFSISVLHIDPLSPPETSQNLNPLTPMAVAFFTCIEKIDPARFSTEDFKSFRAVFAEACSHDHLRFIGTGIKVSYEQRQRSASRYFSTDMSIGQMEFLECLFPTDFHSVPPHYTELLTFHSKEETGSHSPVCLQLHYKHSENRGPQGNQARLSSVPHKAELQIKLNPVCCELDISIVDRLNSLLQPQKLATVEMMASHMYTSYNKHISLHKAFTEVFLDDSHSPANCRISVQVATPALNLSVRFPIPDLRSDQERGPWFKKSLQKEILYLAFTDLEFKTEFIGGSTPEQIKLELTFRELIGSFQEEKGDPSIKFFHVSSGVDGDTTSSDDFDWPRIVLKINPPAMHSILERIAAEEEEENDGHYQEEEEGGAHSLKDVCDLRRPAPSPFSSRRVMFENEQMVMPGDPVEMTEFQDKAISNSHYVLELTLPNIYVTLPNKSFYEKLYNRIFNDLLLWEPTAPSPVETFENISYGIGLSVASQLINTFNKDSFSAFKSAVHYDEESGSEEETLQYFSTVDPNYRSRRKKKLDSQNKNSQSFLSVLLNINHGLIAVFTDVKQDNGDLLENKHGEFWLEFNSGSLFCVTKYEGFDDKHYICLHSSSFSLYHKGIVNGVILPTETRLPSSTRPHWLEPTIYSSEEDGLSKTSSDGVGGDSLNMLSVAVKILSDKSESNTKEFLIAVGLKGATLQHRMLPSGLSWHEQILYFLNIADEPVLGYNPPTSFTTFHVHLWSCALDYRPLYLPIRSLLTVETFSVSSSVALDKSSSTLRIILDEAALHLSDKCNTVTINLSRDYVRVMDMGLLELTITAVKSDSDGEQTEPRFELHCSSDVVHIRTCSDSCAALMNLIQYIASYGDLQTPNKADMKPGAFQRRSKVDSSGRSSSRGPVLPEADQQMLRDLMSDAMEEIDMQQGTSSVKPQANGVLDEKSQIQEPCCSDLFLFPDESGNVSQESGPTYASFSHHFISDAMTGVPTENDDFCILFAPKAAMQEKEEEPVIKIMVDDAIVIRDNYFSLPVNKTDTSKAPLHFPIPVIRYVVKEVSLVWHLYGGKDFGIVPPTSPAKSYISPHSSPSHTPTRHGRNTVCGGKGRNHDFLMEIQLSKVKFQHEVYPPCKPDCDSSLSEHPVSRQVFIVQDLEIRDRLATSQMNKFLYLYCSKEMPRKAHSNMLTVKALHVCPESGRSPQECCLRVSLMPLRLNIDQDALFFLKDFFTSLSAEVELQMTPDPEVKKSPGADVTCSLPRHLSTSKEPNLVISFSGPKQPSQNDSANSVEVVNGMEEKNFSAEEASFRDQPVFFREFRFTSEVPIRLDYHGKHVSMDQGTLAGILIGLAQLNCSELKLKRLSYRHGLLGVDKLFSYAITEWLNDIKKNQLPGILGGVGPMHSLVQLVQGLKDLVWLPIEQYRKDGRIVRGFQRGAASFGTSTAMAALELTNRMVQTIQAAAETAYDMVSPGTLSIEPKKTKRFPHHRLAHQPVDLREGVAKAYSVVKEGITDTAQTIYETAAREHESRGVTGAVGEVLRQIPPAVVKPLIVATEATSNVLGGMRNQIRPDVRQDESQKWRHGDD
# UniProt Q92974: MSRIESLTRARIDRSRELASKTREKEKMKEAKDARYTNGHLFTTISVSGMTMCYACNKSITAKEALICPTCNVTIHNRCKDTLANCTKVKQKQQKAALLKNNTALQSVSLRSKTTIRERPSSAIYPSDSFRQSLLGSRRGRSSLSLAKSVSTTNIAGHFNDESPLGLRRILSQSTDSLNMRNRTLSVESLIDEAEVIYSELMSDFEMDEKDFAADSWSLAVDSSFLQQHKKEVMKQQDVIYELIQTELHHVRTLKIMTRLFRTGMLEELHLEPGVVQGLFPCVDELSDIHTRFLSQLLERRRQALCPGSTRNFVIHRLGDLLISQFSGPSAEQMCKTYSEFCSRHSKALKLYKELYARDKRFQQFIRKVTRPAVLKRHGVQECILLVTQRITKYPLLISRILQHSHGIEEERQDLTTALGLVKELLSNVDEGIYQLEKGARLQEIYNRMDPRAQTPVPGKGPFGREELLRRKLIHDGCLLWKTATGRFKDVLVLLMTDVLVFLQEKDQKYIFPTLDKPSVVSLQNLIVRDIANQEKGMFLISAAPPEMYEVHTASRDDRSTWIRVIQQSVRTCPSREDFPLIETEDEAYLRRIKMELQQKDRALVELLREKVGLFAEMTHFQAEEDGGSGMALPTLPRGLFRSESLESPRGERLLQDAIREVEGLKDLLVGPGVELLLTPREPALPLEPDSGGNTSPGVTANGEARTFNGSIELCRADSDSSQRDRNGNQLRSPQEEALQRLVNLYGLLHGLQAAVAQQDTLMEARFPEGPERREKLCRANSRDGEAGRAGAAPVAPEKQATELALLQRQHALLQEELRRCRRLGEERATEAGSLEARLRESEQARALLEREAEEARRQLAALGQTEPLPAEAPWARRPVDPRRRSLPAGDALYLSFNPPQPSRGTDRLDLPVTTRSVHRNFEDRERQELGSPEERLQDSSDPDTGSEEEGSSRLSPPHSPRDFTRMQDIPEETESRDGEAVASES
# Some of the results follow. Most values lie at the level of the controls, where differences are scatter.
# Compound: Cc1nc(Nc2ncc(C(=O)Nc3c(C)cccc3Cl)s2)cc(N2CCN(CCO)CC2)n1 [dasatinib]
# Assay: log2 fold change of tryptic peptide abundance, ligand vs vehicle (limited proteolysis) (log2 ratio); higher = more trypsin-susceptible (destabilized)
# Conditions: ligand concentration: 5 uM; sample: K562 cleared lysate
row,Target,log2 fold change
1,"RNF31 (peptide sequence: SCEDFQNWK, peptide start residue: 840) (UniProt Q96EP0)",-0.252
2,"UniProt Q96ES7 (peptide sequence: IAGLYNDSEPPRK, peptide start residue: 100)",0.247
3,"PRCC (peptide sequence: KHQITYLIHQAK, peptide start residue: 454) (UniProt Q92733)",-0.131
4,"NUDT16 (peptide sequence: YAILMQMR, peptide start residue: 43) (UniProt Q96DE0)",-0.141
5,"PTER (peptide sequence: ILQEAGADISK, peptide start residue: 215) (UniProt Q96BW5)",-0.33
6,"DLG3 (peptide sequence: TGMIESNR, peptide start residue: 584) (UniProt Q92796)",0.118
7,"HOOK2 (peptide sequence: LNQQQLSELR, peptide start residue: 505) (UniProt Q96ED9)",0.543
8,"ATG4C (peptide sequence: YSDDHEMR, peptide start residue: 185) (UniProt Q96DT6)",-0.536
9,"EVPL (peptide sequence: QAREEEAR, peptide start residue: 1551) (UniProt Q92817)",-0.111
10,"ATG2B (peptide sequence: LSPSWNPK, peptide start residue: 254) (UniProt Q96BY7)",-0.32
11,"ARHGEF2 (peptide sequence: LRESEQAR, peptide start residue: 839) (UniProt Q92974)",-0.35

# Quoted from the listing.
# log2 fold change with PTER (peptide sequence: ILQEAGADISK, peptide start residue: 215) (UniProt Q96BW5) is entered as -0.33
# log2 fold change with ARHGEF2 (peptide sequence: LRESEQAR, peptide start residue: 839) (UniProt Q92974) is entered as -0.35
